Measurements reported in PubChem BioAssay AID1159579 (Peter MacCallum Cancer Centre, 2015)
The deposit covers about 2,000 reagents; this is an unselected part. Of all reagents, 549 (27%) were called active. 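Some migration ratios are negative; siRNAs with too few cells are inactive whatever their migration ratio.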 Entries without a mark were called inactive. Reagents against one gene are numbered here. Reagent sequences are not shown. Not given: the time to read-out.

- Aim: 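Find genes whose silencing alters migration of lymphatic endothelial cells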 (follow-up of hits)
- Cell system: human dermal lymphatic endothelial cells
- Knock-down reagent: single siRNA against human genes, 25 nM
- Detection: 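High content images of wound closure area and cell nuclei counts, each the average of two wells, expressed against mock transfection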
- Direction: migration relative to mock: higher = more migration into the scratch; mean nuclei count: higher = more cells remaining
- Rule for the call: 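a ratio of at most 0.6 or at least 1.3 marks altered migration and an active call; a mean nuclei count under 3300 forces an inactive call regardless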
- Meaning of the calls: active = migration changed (impaired or accelerated); inactive = no migration change, or too few cells

Target gene,reagent no.,migration relative to mock,migration and cell number class,mean nuclei count
PGLYRP4,1,0.93,no change in migration or cell number,8078
PGLYRP4,2,0.96,no change in migration or cell number,5494
PGLYRP4,3,0.22 (active),migration reduced,5150
PGLYRP4,4,1.08,no change in migration or cell number,6460
BIRC7,1,1,no change in migration or cell number,6584
BIRC7,2,0.86,no change in migration or cell number,6405
BIRC7,3,0.64,no change in migration or cell number,5354
BIRC7,4,0.88,no change in migration or cell number,5282
LPL,1,0.75,no change in migration or cell number,5134
LPL,2,0.51 (active),migration reduced,4884
LPL,3,0.42 (active),migration reduced,5216
LPL,4,0.66,no change in migration or cell number,5949
TMC1,1,0.82,no change in migration or cell number,6558
TMC1,2,0.86,no change in migration or cell number,5943
TMC1,3,0.56 (active),migration reduced,4238
TMC1,4,0.94,no change in migration or cell number,5680
FBXO44,1,0.78,no change in migration or cell number,6082
FBXO44,2,0.94,no change in migration or cell number,7074
FBXO44,3,0.6 (active),migration reduced,6732
FBXO44,4,0.13,too few cells; migration not scored,2264
CYP4F11,1,-1.52,too few cells; migration not scored,2631
CYP4F11,2,0.74,no change in migration or cell number,7927
CYP4F11,3,0.69,no change in migration or cell number,5314
CYP4F11,4,0.76,no change in migration or cell number,6322
SPICE1,1,0.56 (active),migration reduced,4912
SPICE1,2,0.8,no change in migration or cell number,6164
SPICE1,3,-0.02 (active),migration reduced,4099
SPICE1,4,0.79,no change in migration or cell number,5504

Next part (8 carried over from the part before).
Target gene,reagent no.,migration relative to mock,migration and cell number class,mean nuclei count
CYP4F11,1,-1.52,too few cells; migration not scored,2631
CYP4F11,2,0.74,no change in migration or cell number,7927
CYP4F11,3,0.69,no change in migration or cell number,5314
CYP4F11,4,0.76,no change in migration or cell number,6322
SPICE1,1,0.56 (active),migration reduced,4912
SPICE1,2,0.8,no change in migration or cell number,6164
SPICE1,3,-0.02 (active),migration reduced,4099
SPICE1,4,0.79,no change in migration or cell number,5504
LRFN4,1,0.89,no change in migration or cell number,5392
LRFN4,2,0.52 (active),migration reduced,5680
LRFN4,3,0.89,no change in migration or cell number,5087
LRFN4,4,0.68,no change in migration or cell number,5096
SLC9B2,1,0.8,no change in migration or cell number,3386
SLC9B2,2,0.75,no change in migration or cell number,5111
SLC9B2,3,0.92,no change in migration or cell number,5188
SLC9B2,4,1.02,no change in migration or cell number,5042
KANSL1,1,0.46 (active),migration reduced,3582
KANSL1,2,0.56 (active),migration reduced,3895
KANSL1,3,0.73,no change in migration or cell number,3550
KANSL1,4,0.81,no change in migration or cell number,5207
ZNF76,1,0.68,no change in migration or cell number,6655
ZNF76,2,-0.54 (active),migration reduced,3714
ZNF76,3,0.44 (active),migration reduced,3652
ZNF76,4,0.86,no change in migration or cell number,5852
SGK3,1,0.44 (active),migration reduced,5882
SGK3,2,0.9,no change in migration or cell number,6423
SGK3,3,0.58 (active),migration reduced,6376
SGK3,4,0.62,no change in migration or cell number,5891
TMEM218,1,0.7,no change in migration or cell number,5820
TMEM218,2,0.94,no change in migration or cell number,6589
TMEM218,3,0.62,no change in migration or cell number,6348
TMEM218,4,0.35 (active),migration reduced,4538
ACTL8,1,0.41,too few cells; migration not scored,2501
ACTL8,2,1.11,no change in migration or cell number,5280
ACTL8,3,0.71,no change in migration or cell number,5144
ACTL8,4,0.42 (active),migration reduced,3998
SRMS,1,0.44 (active),migration reduced,4674
SRMS,2,0.57 (active),migration reduced,4614
SRMS,3,0.8,no change in migration or cell number,5941
SRMS,4,0.52 (active),migration reduced,5412
DNM1L,1,1,no change in migration or cell number,6490
DNM1L,2,0.64,no change in migration or cell number,6071
DNM1L,3,1.01,no change in migration or cell number,6406
DNM1L,4,0.38 (active),migration reduced,4336
MAGEA10,1,0.76,no change in migration or cell number,4552
MAGEA10,2,0.73,no change in migration or cell number,5242
MAGEA10,3,0.48 (active),migration reduced,3435
MAGEA10,4,1.06,no change in migration or cell number,5279
